Assay [1] has as its target Murine PW1, forced expression in HEK293 cells (mass spectrometry screen) (mouse) (UniProt Q3URU2). The experiment in a line: affinity purification with mass spectrometry; PW1 immunoprecipitated from C2C12 cells (endogenous) or HEK293 cells (forced expression of murine PW1); two-dimensional electrophoresis, spots picked and analysed by LC-MS/MS; F3 cells, which do not express PW1, as negative control.

Amino acid sequences for entries named in this document (tags omitted). A change or cut given only in a name is not applied to a line headed by its entry.
UniProt Q3URU2: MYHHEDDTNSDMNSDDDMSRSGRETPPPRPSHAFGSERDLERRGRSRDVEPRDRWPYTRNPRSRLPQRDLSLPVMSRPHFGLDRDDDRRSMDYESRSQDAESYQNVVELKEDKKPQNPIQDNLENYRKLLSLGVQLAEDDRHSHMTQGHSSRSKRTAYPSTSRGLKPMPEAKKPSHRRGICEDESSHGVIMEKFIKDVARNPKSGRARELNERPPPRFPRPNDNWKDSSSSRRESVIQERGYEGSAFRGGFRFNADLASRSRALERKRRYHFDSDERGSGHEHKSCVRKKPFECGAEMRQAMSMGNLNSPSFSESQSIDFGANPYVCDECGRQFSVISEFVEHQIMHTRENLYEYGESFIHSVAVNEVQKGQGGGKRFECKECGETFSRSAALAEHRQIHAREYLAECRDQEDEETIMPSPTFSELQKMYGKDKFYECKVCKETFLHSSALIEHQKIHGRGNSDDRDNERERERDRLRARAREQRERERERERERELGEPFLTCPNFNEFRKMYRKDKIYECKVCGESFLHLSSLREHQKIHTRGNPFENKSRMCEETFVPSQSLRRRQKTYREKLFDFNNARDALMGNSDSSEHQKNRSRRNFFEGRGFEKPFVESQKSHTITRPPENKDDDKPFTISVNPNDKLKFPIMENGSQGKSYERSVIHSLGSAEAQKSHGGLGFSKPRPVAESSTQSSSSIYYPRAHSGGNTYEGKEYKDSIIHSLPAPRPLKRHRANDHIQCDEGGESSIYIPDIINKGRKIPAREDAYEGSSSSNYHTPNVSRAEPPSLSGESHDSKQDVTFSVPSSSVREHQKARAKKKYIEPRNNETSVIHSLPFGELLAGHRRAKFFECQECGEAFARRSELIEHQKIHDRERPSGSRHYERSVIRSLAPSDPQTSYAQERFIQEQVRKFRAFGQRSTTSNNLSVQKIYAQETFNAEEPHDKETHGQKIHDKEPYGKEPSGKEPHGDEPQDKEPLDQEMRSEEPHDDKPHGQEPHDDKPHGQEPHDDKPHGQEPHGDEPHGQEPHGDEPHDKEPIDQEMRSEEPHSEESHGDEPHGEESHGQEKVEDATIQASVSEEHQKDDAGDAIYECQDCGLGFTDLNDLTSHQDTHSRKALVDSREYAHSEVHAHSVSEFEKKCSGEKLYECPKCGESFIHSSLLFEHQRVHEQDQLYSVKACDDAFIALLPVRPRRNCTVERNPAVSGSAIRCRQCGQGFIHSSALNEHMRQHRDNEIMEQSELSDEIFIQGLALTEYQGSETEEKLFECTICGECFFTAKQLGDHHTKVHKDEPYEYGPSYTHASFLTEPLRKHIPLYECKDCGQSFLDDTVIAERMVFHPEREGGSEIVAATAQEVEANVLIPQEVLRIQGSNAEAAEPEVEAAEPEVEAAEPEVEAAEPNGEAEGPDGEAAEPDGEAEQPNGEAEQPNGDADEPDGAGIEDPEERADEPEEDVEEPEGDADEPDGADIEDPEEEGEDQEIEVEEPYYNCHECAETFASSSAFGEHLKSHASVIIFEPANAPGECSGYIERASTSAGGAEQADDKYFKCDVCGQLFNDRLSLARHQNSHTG
UniProt P21796: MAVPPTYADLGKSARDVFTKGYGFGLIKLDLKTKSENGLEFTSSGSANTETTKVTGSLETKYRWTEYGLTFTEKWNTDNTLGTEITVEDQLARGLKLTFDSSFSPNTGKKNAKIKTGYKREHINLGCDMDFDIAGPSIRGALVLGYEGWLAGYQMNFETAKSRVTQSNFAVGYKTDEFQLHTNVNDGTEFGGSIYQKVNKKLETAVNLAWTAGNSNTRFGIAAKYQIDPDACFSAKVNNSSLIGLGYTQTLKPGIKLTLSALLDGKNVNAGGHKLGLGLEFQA
UniProt Q60932: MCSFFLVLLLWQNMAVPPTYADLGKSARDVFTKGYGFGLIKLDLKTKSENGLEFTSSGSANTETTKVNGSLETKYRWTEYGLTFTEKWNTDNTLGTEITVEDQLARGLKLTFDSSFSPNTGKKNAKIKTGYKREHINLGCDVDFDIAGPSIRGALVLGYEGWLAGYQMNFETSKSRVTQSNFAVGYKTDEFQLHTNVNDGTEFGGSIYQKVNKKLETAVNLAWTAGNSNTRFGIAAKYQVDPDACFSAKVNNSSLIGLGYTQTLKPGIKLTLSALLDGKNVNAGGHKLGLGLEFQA

The target of assay [2] is PW1 (endogenous, C2C12 myogenic cells) (mouse (endogenous in C2C12)) (UniProt Q3URU2). The description is as above.

This note sets out measurements from PMC2680623.

Results are given in words; binding and its absence hold for the method and conditions named. In cells and extracts the contact can be indirect. These calls come from enrichment with a bait or labelling near it, and not all partners need be listed.

Turning to “VDAC-1 (endogenous, HEK293 cells) (from UniProt P21796 1-283)”, in assay [1], the binding entry is given as “binds”.
“VDAC-1 (endogenous, C2C12 cells) (from UniProt Q60932)”: in assay [2], the binding entry is given as “binds”.
